By UniProt entry, the sequences of proteins in these tests, tags left out. Residues count along the entry.
UniProt Q03265, residues 44-553: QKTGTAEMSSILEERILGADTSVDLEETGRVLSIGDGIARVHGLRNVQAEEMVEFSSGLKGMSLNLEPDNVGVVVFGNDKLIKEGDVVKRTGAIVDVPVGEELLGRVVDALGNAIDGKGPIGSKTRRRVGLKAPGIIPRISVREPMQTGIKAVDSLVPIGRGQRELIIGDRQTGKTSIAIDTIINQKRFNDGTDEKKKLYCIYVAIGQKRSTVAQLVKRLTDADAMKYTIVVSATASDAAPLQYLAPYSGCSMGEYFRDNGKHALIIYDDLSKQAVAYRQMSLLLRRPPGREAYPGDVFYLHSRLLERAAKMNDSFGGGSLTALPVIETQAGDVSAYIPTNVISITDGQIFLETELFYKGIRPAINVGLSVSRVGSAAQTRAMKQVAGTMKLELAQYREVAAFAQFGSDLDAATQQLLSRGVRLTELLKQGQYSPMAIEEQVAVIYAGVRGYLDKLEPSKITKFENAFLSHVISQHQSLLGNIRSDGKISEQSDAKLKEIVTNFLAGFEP
UniProt P47856: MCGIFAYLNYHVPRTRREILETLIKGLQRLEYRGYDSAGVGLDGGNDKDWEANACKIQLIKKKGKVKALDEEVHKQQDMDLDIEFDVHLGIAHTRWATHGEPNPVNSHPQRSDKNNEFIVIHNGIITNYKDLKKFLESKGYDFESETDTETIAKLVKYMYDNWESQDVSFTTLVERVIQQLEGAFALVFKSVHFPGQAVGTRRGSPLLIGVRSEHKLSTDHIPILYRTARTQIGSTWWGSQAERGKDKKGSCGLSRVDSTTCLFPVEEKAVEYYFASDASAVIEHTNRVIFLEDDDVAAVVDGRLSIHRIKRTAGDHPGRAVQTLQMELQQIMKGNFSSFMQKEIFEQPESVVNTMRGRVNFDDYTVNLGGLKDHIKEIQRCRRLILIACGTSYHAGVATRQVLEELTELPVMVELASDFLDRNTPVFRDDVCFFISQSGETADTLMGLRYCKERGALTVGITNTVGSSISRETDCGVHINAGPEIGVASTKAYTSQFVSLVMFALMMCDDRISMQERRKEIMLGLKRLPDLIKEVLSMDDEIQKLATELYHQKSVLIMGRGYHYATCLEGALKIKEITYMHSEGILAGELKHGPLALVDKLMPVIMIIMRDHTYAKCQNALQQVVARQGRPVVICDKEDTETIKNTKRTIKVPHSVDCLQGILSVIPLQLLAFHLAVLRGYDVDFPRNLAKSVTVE

According to paper doi:10.1101/2024.11.15.623798:

Target: T1, HKDC1 (HK domain containing 1) (mouse (endogenous in small intestinal mucosa)) (UniProt Q91W97)
T1 sequence: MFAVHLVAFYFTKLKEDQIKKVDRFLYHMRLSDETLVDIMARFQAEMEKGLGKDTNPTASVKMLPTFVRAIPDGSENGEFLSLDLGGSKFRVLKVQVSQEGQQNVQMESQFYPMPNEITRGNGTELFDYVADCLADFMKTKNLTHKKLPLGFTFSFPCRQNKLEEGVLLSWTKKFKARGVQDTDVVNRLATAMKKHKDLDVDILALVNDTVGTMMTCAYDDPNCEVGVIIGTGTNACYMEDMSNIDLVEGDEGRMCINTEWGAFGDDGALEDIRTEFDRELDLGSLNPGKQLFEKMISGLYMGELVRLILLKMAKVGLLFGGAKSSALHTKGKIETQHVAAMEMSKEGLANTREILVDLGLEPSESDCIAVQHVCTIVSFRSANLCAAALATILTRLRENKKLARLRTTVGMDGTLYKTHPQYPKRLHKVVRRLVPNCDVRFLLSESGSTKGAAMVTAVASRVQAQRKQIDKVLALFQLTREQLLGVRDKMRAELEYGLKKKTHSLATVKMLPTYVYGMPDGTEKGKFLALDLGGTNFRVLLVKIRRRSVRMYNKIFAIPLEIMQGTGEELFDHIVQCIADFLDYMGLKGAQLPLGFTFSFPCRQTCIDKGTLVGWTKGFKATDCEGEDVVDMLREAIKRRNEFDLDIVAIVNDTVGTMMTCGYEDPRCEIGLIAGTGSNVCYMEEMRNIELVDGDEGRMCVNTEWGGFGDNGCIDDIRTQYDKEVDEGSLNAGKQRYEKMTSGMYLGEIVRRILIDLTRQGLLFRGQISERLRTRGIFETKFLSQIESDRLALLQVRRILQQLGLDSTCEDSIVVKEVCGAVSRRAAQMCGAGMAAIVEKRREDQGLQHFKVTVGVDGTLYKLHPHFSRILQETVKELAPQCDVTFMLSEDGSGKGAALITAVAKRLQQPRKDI
Assay: affinity purification with mass spectrometry

ATP5A1 (ATP Synthase Subunit Alpha 1) (from UniProt Q03265 44-553)
binding: binds

GFPT1 (Glutamine-Fructose-6-Phosphate Transaminase 1) (from UniProt P47856 1-697) (enzyme)
binding: binds

HK1 (from UniProt P17710-3) (enzyme)
binding: binds

B1: HK2 (enzyme, UniProt O08528 1-917)
chain: MIASHMIACLFTELNQNQVQKVDQYLYHMRLSDETLLEISRRFRKEMEKGLGATTHPTAAVKMLPTFVRSTPDGTEHGEFLALDLGGTNFRVLRVRVTDNGLQRVEMENQIYAIPEDIMRGSGTQLFDHIAECLANFMDKLQIKEKKLPLGFTFSFPCHQTKLDESFLVSWTKGFKSSGVEGRDVVDLIRKAIQRRGDFDIDIVAVVNDTVGTMMTCGYDDQNCEIGLIVGTGSNACYMEEMRHIDMVEGDEGRMCINMEWGAFGDDGTLNDIRTEFDREIDMGSLNPGKQLFEKMISGMYMGELVRLILVKMAKAELLFQGKLSPELLTTGSFETKDVSDIEDDKDGIQKAYQILVRLGLSPLQEDCVATHRICQIVSTRSASLCAATLAAVLWRIKENKGEERLRSTIGVDGSVYKKHPHFAKRLHKAVRRLVPDCDVRFLRSEDGSGKGAAMVTAVAYRLADQHRARQKTLESLKLSHEQLLEVKRRMKVEMEQGLSKETHEAAPVKMLPTYVCATPDGTEKGDFLALDLGGTNFRVLLVRVRNGKRRGVEMHNKIYSIPQEVMHGTGEELFDHIVQCIADFLEYMGMKGVSLPLGFTFSFPCQQNSLDQSILLKWTKGFKASGCEGEDVVTLLKEAIRRREEFDLDVVAVVNDTVGTMMTCGYEDPHCEVGLIVGTGSNACYMEEMRNVELVDGEEGRMCVNMEWGAFGDNGCLDDLRTVFDVAVDELSLNPGKQRFEKMISGMYLGEIVRNILIDFTKRGLLFRGRISERLKTRGIFETKFLSQIESDCLALLQVRAILRHLGLESTCDDSIIVKEVCTVVARRAAQLCGAGMAAVVDKIRENRGLDNLKVTVGVDGTLYKLHPHFAKVMHETVRDLAPKCDVSFLESEDGSGKGAALITAVACRIREAGQR
binding: binds

B2: SLC25A5 (Solute Carrier Family 25 Member 5 also referred to as ADP/ATP Translocase 2) (protein, UniProt P51881 1-298)
chain: MTDAAVSFAKDFLAGGVAAAISKTAVAPIERVKLLLQVQHASKQITADKQYKGIIDCVVRIPKEQGVLSFWRGNLANVIRYFPTQALNFAFKDKYKQIFLGGVDKRTQFWRYFAGNLASGGAAGATSLCFVYPLDFARTRLAADVGKAGAEREFKGLGDCLVKIYKSDGIKGLYQGFNVSVQGIIIYRAAYFGIYDTAKGMLPDPKNTHIFISWMIAQSVTAVAGLTSYPFDTVRRRMMMQSGRKGTDIMYTGTLDCWRKIARDEGSKAFFKGAWSNVLRGMGGAFVLVLYDEIKKYT
binding: binds

These are yes or no findings as the source states them, for the method shown. Binding seen in cells or lysates may run through a third protein. Here binding means that the protein was enriched with, or labelled near, the bait; the list need not be complete.
